{"source": "patent US9487492B2", "about": "“Dibenzothiazepine derivatives and their use in the treatment of CNS disorders” (NUMEDICUS LIMITED, priority 2011, dated 2016)", "origin": "cited, not measured here", "conditions": "in humans; cited from earlier work", "data": [{"smiles": "CN1c2ccccc2C(NCCCCCCC(=O)O)c2ccc(Cl)cc2S1(=O)=O", "note": "(stereo not shown) [Tianeptine]", "values": [{"measurement": "terminal half life", "result": "approximately 2.5 hours"}]}]}
